No constants are given. Whether binding was seen depends on the method and setting. Binding seen in cells or lysates may run through a third protein. A yes stands for co-enrichment or nearness to the bait. Other partners may have been found. Values belong to the substance of their own block, whether it stands above or below them.
How the values were obtained:
Experiment in all cases: affinity purification with mass spectrometry
[1] = biological target: CDK10 (human (endogenous in cancer cell lines)) (UniProt Q15131)
[2] = biological target: CSK (human (endogenous in Jurkat, FOCUS and other cancer cell lines)) (UniProt P41240)
[3] = biological target: CDK1 (human (endogenous in HeLa)) (UniProt P06493)
[4] = biological target: HCK (human (endogenous in FOCUS)) (UniProt P08631)
[5] = biological target: CDK7 (human (endogenous in HeLa)) (UniProt P50613)
[6] = biological target: adapter-associated kinase 1 (AAK1) (human (endogenous in FOCUS)) (UniProt Q2M2I8)

By UniProt entry, the sequences of proteins in these tests, tags left out.
UniProt Q15131: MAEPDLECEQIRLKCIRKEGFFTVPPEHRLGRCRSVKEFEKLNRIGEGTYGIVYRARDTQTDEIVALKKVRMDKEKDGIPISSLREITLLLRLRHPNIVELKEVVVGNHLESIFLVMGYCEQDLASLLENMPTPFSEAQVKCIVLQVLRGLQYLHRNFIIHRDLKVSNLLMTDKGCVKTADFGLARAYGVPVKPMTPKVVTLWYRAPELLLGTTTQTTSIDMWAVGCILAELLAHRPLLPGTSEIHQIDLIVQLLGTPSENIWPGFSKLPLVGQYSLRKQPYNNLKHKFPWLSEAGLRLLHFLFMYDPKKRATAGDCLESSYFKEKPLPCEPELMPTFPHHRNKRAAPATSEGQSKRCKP
UniProt P41240: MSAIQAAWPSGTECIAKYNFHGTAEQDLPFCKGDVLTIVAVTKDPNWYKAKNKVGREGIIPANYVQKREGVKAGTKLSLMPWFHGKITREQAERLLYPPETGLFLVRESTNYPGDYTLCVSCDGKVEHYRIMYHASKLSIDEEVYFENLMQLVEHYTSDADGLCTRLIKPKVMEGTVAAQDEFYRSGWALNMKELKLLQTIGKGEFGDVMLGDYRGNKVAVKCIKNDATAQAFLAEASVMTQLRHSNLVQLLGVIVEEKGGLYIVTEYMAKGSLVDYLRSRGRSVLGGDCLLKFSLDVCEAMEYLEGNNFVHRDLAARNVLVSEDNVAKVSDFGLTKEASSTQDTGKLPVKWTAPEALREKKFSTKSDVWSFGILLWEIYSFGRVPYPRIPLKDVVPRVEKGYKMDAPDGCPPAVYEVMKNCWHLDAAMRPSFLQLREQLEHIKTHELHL
UniProt P06493: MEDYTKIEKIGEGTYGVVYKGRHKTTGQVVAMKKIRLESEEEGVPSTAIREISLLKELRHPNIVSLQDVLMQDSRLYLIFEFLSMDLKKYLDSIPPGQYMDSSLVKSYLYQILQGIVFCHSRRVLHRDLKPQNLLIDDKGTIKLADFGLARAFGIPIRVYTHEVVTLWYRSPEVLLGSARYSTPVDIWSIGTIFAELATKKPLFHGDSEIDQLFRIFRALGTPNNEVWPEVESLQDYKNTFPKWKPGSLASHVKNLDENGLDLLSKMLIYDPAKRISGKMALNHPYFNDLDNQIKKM
UniProt Q2M2I8: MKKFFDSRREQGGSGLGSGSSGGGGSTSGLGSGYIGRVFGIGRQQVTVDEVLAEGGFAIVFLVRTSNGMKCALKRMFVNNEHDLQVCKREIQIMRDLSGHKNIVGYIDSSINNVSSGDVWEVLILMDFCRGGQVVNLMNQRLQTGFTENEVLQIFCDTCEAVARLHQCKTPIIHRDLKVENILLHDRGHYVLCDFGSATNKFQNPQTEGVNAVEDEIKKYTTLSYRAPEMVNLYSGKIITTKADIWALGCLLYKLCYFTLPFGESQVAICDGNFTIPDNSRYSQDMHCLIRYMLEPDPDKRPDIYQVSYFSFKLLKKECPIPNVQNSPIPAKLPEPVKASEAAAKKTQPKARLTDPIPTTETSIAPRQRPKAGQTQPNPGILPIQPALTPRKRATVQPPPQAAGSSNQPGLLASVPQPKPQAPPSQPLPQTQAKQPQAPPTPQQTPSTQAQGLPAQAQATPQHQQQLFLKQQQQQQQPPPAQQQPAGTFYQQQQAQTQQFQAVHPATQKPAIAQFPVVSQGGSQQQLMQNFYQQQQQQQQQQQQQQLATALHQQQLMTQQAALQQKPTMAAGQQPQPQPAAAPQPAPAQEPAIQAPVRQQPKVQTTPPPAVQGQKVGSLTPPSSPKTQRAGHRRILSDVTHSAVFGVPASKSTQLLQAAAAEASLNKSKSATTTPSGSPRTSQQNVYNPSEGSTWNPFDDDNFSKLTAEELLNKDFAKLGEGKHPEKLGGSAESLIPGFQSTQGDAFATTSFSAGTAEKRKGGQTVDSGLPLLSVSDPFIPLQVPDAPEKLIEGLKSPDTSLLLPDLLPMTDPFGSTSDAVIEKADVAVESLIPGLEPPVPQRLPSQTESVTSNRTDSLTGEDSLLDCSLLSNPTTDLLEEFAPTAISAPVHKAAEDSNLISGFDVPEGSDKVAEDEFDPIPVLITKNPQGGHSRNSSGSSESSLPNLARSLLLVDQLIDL
UniProt P09382: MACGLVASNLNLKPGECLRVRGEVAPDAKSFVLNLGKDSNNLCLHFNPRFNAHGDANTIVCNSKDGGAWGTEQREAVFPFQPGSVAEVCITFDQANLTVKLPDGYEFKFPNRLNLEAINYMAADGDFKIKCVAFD
UniProt Q15311: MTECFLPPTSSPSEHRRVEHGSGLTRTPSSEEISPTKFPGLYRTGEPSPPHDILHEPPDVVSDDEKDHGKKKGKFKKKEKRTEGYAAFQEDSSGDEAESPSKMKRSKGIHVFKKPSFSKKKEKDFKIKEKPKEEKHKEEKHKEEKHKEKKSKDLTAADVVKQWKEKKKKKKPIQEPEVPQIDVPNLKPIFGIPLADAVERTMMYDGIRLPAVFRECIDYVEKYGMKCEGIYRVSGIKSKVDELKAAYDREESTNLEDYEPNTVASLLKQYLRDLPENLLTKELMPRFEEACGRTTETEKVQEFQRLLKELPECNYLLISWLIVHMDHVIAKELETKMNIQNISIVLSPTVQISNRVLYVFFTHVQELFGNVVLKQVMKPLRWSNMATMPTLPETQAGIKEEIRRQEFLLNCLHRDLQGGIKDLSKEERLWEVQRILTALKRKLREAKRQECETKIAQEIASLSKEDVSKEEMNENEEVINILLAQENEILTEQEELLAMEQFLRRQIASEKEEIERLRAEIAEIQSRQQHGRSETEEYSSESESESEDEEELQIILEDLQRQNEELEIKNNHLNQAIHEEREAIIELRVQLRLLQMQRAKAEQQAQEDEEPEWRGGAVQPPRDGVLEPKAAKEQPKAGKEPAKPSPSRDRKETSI
UniProt Q68CZ2: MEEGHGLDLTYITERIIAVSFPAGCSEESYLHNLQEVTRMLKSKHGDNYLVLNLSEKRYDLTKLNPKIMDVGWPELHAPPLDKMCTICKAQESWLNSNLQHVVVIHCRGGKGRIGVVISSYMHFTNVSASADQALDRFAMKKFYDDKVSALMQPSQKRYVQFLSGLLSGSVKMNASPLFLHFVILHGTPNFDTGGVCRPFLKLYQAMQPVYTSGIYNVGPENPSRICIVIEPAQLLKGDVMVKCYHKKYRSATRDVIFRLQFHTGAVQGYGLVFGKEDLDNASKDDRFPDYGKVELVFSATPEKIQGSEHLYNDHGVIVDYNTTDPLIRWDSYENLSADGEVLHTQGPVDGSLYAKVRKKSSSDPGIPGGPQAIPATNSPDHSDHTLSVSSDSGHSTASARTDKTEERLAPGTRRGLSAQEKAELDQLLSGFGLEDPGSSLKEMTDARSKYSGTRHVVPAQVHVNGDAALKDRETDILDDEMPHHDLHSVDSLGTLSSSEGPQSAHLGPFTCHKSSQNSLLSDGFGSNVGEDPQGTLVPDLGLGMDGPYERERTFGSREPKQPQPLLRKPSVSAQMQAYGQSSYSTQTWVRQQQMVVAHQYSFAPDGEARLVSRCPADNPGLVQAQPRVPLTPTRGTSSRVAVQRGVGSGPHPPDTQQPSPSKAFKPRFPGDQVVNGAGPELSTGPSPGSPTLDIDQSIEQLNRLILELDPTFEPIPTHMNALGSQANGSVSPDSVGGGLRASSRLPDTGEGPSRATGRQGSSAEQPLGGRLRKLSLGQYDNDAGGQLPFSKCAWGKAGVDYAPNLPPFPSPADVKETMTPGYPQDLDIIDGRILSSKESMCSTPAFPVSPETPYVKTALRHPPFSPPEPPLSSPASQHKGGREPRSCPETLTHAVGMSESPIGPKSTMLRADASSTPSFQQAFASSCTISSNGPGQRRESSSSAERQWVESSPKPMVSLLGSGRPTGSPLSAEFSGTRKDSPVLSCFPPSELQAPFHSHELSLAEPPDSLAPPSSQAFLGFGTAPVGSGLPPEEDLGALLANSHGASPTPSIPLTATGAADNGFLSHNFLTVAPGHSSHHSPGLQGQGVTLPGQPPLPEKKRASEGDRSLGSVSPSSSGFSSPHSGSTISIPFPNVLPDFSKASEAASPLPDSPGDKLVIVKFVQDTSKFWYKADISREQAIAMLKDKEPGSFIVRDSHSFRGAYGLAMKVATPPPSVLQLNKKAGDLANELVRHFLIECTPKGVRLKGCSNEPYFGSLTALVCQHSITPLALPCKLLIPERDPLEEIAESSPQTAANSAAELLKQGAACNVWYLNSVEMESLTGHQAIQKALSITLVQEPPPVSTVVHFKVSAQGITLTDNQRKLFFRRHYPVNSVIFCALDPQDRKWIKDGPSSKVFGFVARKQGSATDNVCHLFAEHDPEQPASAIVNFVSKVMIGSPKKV
UniProt Q9NWQ8: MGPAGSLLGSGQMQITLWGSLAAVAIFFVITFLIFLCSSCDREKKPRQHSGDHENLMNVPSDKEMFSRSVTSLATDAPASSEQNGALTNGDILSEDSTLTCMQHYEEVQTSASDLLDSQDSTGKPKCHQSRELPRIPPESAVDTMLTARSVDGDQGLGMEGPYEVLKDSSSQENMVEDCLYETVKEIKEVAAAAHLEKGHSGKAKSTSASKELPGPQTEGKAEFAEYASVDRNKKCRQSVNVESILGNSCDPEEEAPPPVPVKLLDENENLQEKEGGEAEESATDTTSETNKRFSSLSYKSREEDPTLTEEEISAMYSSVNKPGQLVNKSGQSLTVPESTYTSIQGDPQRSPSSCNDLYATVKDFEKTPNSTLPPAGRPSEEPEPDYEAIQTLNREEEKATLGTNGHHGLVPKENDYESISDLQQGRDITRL
UniProt Q9HBL0: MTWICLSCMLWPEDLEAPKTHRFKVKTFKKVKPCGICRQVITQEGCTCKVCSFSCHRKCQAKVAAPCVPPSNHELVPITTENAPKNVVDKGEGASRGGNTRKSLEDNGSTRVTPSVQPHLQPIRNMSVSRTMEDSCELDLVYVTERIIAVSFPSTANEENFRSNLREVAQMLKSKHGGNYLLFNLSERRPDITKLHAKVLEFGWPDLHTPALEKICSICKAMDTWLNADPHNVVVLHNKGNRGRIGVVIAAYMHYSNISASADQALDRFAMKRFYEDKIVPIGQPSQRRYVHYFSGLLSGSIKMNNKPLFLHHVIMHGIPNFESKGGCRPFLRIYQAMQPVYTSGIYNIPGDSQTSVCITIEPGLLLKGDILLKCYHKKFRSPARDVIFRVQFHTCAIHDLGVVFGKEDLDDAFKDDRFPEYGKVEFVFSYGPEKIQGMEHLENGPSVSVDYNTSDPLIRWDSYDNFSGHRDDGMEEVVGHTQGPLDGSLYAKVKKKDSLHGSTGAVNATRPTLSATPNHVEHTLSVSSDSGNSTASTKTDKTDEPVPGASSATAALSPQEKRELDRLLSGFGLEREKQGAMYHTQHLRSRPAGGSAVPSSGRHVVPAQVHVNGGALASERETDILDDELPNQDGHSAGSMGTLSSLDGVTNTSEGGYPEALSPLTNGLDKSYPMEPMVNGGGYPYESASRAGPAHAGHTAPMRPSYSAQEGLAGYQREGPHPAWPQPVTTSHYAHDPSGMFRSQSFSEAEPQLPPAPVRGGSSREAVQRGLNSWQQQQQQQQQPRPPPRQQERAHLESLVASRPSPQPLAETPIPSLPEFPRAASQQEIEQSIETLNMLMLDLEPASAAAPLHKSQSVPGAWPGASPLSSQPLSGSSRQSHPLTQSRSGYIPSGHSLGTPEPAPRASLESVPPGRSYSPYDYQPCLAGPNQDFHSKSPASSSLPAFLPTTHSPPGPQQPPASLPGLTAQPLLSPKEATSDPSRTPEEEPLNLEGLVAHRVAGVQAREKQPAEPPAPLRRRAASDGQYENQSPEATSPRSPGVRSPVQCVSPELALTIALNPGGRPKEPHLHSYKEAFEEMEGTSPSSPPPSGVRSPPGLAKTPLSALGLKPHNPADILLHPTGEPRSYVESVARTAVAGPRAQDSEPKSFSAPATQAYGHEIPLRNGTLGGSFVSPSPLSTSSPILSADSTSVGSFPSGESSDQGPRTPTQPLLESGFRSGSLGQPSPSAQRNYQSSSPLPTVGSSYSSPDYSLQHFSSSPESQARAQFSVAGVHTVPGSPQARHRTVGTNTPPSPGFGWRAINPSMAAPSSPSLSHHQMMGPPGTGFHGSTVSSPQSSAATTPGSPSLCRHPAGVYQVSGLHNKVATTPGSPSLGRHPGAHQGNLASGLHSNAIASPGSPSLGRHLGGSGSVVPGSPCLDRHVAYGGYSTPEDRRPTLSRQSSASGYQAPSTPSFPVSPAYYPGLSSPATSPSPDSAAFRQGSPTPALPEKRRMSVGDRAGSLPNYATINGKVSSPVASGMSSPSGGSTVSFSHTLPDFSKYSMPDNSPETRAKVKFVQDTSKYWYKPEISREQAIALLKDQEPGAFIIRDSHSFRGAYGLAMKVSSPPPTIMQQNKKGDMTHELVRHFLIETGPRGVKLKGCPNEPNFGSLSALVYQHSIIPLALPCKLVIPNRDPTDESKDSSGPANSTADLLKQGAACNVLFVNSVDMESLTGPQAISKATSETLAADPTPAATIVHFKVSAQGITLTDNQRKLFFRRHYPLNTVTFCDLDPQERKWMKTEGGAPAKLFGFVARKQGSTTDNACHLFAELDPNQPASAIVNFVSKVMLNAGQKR

Substance: transcription factor Dp-1 (TFDP1) (from UniProt Q14186 1-410)
binding [1]: binds

Substance: cyclin A1 (from UniProt P78396 1-465)
binding [3]: binds

Substance: galectin-1 (LGALS1) (from UniProt P09382 1-135)
binding [4]: binds

Substance: ERCC3 (from UniProt P19447 1-782)
binding [5]: binds

Substance: retinoblastoma-like protein 2 (RBL2) (from UniProt Q08999 1-1139)
binding [1]: binds

Substance: RALBP1 (from UniProt Q15311 1-655)
binding [6]: binds

Substance: paxillin (PXN) (from UniProt P49023 1-591)
binding [2]: binds

The next lines start with the values.

binding [2]: binds
Substance: tensin-3 (TNS3) (from UniProt Q68CZ2 1-1445)

binding [2]: binds
Substance: UBASH3B (from UniProt Q8TF42 1-649)

binding [2]: binds
Substance: PAG1 (from UniProt Q9NWQ8 1-432)

binding [3]: binds
Substance: cyclin B2 (from UniProt O95067 1-398)

binding [2]: binds
Substance: tensin 1 (TNS1) (from UniProt Q9HBL0 1-1839)

binding [5]: binds
Substance: GTF2H1 (from UniProt P32780 1-548)

Source: doi:10.1101/2021.09.14.460283
